The record followed here is patent publication EP2954896A1, “Small molecule inhibitors of the E3 Ligase Skp2 in depression and other diseases” (Max-Planck-Gesellschaft zur Förderung der Wissenschaften …, priority 2014, dated 2015).

The data set can be described thus: Chronic PAR treatment after chronic social defeat stress: physiological and neuroendocrine parameters. It counts as in vivo, mice. An excerpt: Initially, wild-type and 51 KOmice were split into 2 x 2 groups (control WT, control FKBP51^-/-, defeat WT, defeat FKBP51^-/-) and subjected to the chronic stress procedure described below. After cessation of the stressor, groups were subdivided into vehicle-treated and paroxetine-treated animals, resulting in 8 groups (n = 7-13 per group). The treatment phase lasted for three weeks. The behavioral tests took place during the last week of the paroxetine treatment.
The CSDS paradigm lasted for 21 days. Briefly, the experimental mice were introduced into the home cage (45 cm x 25 cm) of a dominant resident mouse and defeated shortly after. When the defeat was achieved, the animals were separated by a wire mesh, preventing physical but allowing sensory contact for 24 h. Each day, stressed animals were defeated by another unfamiliar, dominant resident mouse in order to exclude a repeated encounter throughout the experiment. The daily defeat was performed between 11:00 and 16:00 h; varying starting times reduced the predictability of the stressor and therefore minimized a potential habituation effect. Experimental mice were always defeated by resident males during the entire stress period. Control mice were housed in their home cages during the course of experiment. Both stress and control animals were handled daily during the stress procedure; body weight for all mice was assessed at the beginning of the experiment, after the cessation of the stress period, and on the day of killing. Animals that underwent the stress procedure were subsequently single housed in standard cages.
Paroxetine (GlaxoSmithKline, Munich, Germany) was administered via drinking water.
The FST also served as an acute stressor in order to determine the stress response by measuring corticosterone plasma concentrations. After the FST, all mice were towel-dried and placed into their home cage to recover from the acute stressor. Blood samples were taken by tail cut. 30 min (stress response) and 90 min (stress recovery) after the onset of the FST. […]

On to `Fc1ccc([C@@H]2CCNC[C@H]2COc2ccc3c(c2)OCO3)cc1` [PAR, paroxetine], for which the adrenal gland weight entry is, setting by setting: (51KO mice) “reduced size”; (WT mice) “adrenal gland enlargement”. Further, the basal corticosterone result (three weeks after the stressor) was “decreased basal corticosterone especially in 51 KOmice”.
